Test results from the supplement of paper PMC7125110.
± gives the standard error. Many of these values have a large error.

B1: glmS ribozyme (parent)
chain: AUAAAAGCGCCAGAACUACAGAAAUGUAGUUGACGAGGAGGAGGUUUAUCGAAUUUUCGGCGGAUGCCUCCAAA

Variants of: B1
Assay: KM; higher = weaker cofactor use; RNA array
Conditions: with glucosamine-6-phosphate
Outline: (§1)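 In situ transcription by E. coli RNA polymerase produced barcoded ribozyme variants on sequenced MiSeq chips, and a hybridised Cy3 probe tracked them at 37 °C. Glucosamine-6-phosphate was flowed in at 40 μM to 10 mM in HEPES/KCl/Mg(OAc)2 buffer. kcat and KM were taken from weighted Michaelis–Menten fits of kobs values from exponential decay fits.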

Variant | KM [µM]
U31G C50U | 93.6 ± 52
C11A A39U | 2430 ± 1200
C11G | 665 ± 260
C11U | 1800 ± 450
A14C A15C | 2740 ± 760
U31C U54C | 3580 ± 1800
C11U U30G | 1720 ± 910
A12G U56A | 7960 ± 2300
A12G U56C | 9850 ± 1600
G13U U46A | 479 ± 200
C16A A53U | 3690 ± 2400
A6G U31G | 4990 ± 1600
A14U A39C | 2790 ± 700
C11U U56A C70U | 479 ± 270
U65A C71G | 1710 ± 720
G35C U65G | 1500 ± 360
G7U C50G C68G | 26.5 ± 18
A6C U54G | 4980 ± 410
A6G A15U | 936 ± 570
A23C | 107 ± 110
G29C A33U | 979 ± 140
A15C C67G | 1530 ± 22
A15C C67A | 778 ± 490
G32A G41U | 7790 ± 4000

Variant | KM [µM]
C16U U55G C68U | 507 ± 230
A14U U56A | 2190 ± 1400
A36U C67U | 44.2 ± 40
C16G U55G | 1800 ± 1200
G13U A53G | 4460 ± 1300
C11A G29U | 597 ± 430
G13U A42G U45A | 4260 ± 2600
A15U U49G | 1730 ± 470
G35U U55C | 288 ± 180
G32A C70G | 314 ± 180
G29A G66U | 2390 ± 2000
A15U G29A | 5560 ± 3500
G13A G41U | 11800 ± 3000
G13A G41A | 1770 ± 270
A52U C71U | 2130 ± 390
A15U G32U C67U | 11600 ± 5800
A15G U57C C58A | 1230 ± 1100
C10G A12C | 7310 ± 5500
A6G G13A | 360 ± 310
G29C A39G | 3130 ± 1600
A6G C10A | 181 ± 140
G13U G29C | 720 ± 620
C16U U54C U69C | 1980 ± 1500
A39G C58G | 3340 ± 1100

Variant | KM [µM]
U31C A52U G63U U69G | 31 ± 28
A12C A53G | 5160 ± 3000
C10U U47A | 300 ± 150
A12U C70A | 282 ± 140
G35A C50G U69A | 30.8 ± 23
A15G U46G | 2020 ± 170
U30A A48C | 12800 ± 1100
A33C G38U | 58.7 ± 41
G29A U47C | 1400 ± 310
G29A U47A | 2600 ± 1600
C11U U45G | 4010 ± 2200
C11G U55A | 37.7 ± 30
G29C G40C | 1020 ± 150
C16A G32A | 5210 ± 4500
A14G C58G | 3880 ± 2900
A14G C58U | 10300 ± 3100
U30G U56C | 2090 ± 1100
G29U C67A | 812 ± 370
A48C C68U | 1310 ± 540
A12U A48G | 628 ± 400
A12U A48U | 3400 ± 1900
G32U C71U | 5540 ± 1700
U30G G59U | 933 ± 900

As a working copy, part of the list above.
Variant | KM [µM]
A14G C58G | 3880 ± 2900
A14G C58U | 10300 ± 3100
U30G U56C | 2090 ± 1100

Variants of: B1
Assay: self-cleavage kobs at 640 uM GlcN6P; higher = faster cleavage; RNA array
Conditions: with glucosamine-6-phosphate
Outline: as §1

Variant | self-cleavage kobs at 640 uM GlcN6P [s⁻¹]
U31G C50U | 1.88e-05 ± 1.6e-05
G7U C50G C68G | 0.000434 ± 0.00023
A48C C67G C68A | 0.000273 ± 0.00015

Variants of: B1
Assay: self-cleavage kobs at 2500 uM GlcN6P; higher = faster cleavage; RNA array
Conditions: with glucosamine-6-phosphate
Outline: as §1

Variant | self-cleavage kobs at 2500 uM GlcN6P [s⁻¹]
U31G C50U | 2.27e-05 ± 1.2e-05
C11G | < 1e-05
A48C C67G C68A | 5.35e-05 ± 2.8e-05
U30A A48C | 1.6e-05 ± 1.3e-05
A42G C68U | 0.01 ± 0.0064

Variants of: B1
Assay: self-cleavage kobs at 10000 uM GlcN6P; higher = faster cleavage; RNA array
Conditions: with glucosamine-6-phosphate
Outline: as §1

Variant | self-cleavage kobs at 10000 uM GlcN6P [s⁻¹]
U31G C50U | 1.96e-05 ± 1.7e-05
G13A G41U | 2.63e-05 ± 2e-05
C10U U47A | 1.91e-05 ± 1.9e-05

Variants of: B1
Assay: self-cleavage kobs at 40 uM GlcN6P; higher = faster cleavage; RNA array
Conditions: with glucosamine-6-phosphate
Outline: as §1

Variant | self-cleavage kobs at 40 uM GlcN6P [s⁻¹]
C16A A53U | 1.9e-05 ± 1.7e-05
U65A C71G | 5.24e-05 ± 2.7e-05
G13U A42G U45A | 2.3e-05 ± 2e-05
A15U G29A | 2.42e-05 ± 1.2e-05

Variants of: B1
Assay: kcat; higher = faster cleavage; RNA array
Conditions: with glucosamine-6-phosphate
Outline: as §1

Variant | kcat [s⁻¹]
U65A C71G | 0.000477 ± 0.00013
C50G U56C | 1.76e-05 ± 2.6e-06
A52U C71U | 0.000457 ± 4e-05
U47C G63A | < 1e-05
A39G C58G | 0.000195 ± 2.9e-05
G40C G59A | < 1e-05
A48C C67G C68A | 4.67e-05 ± 2.4e-05
A52C U69G | 3.13e-05 ± 2.2e-05
A42G C68U | 0.0205 ± 0.019
A48C C68U | 8.75e-05 ± 8.5e-06

In another format: results already given.
Variant	kcat [s⁻¹]
U47C G63A	< 1e-05
A39G C58G	0.000195 ± 2.9e-05

Variants of: B1
Assay: self-cleavage kobs at 160 uM GlcN6P; higher = faster cleavage; RNA array
Conditions: with glucosamine-6-phosphate
Outline: as §1

Variant | self-cleavage kobs at 160 uM GlcN6P [s⁻¹]
G32A G41U | 2e-05 ± 1.1e-05
A52U C71U | 2.47e-05 ± 1.7e-05
A48C C67G C68A | 3.85e-05 ± 1.9e-05
